# Reference: the supplement of paper PMC8728848
# The list shows a part of the results.
# What was measured:
# Assay in all cases: glycan array binding signal (z-score within array); higher = stronger binding
# Conditions in all cases: glycan notation: IUPAC condensed, linker removed
# [1] = molecular target: Gal(a1-3)Gal(b1-4)GlcNAc
# Procedure, shortened: (§1)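 Glycan array data came from 3228 arrays in the Consortium for Functional Glycomics database, and only arrays with an available protein sequence were kept. Glycan names were put into IUPAC-condensed notation, and columns mapping to the same glycan were averaged. The binding signal is a within-array Z-score, averaged across arrays of one protein sequence run at different concentrations or buffers and across linkers. A negative Z-score can be read as non-binding.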
# [2] = molecular target: Gal(a1-3)Gal(b1-4)GlcNAc(b1-2)Man
# Procedure, shortened: as §1
# [3] = molecular target: Gal(a1-3)Gal(b1-4)GlcNAc(b1-2)Man(a1-3)[Gal(a1-3)Gal(b1-4)GlcNAc(b1-2)Man(a1-6)]Man(b1-4)GlcNAc(b1-4)GlcNAc
# Procedure, shortened: as §1
# [4] = molecular target: Gal(a1-3)Gal(b1-4)GlcNAc(b1-3)GalNAc
# Procedure, shortened: as §1
# [5] = molecular target: Gal(a1-3)Gal(b1-4)GlcNAc(b1-6)GalNAc
# Procedure, shortened: as §1
# [6] = molecular target: Gal(a1-3)Gal(b1-4)[Fuc(a1-3)]GlcNAc
# Procedure, shortened: as §1
# [7] = molecular target: Gal(a1-3)Gal(b1-4)[Fuc(a1-3)]GlcNAc(b1-2)Man(a1-3)[Gal(a1-3)Gal(b1-4)[Fuc(a1-3)]GlcNAc(b1-2)Man(a1-6)]Man(b1-4)GlcNAc(b1-4)GlcNAc
# Procedure, shortened: as §1
# [8] = molecular target: Gal(a1-3)GalNAc
# Procedure, shortened: as §1
# [9] = molecular target: Gal(a1-3)[Gal(a1-4)]Gal(b1-4)GlcNAc
# Procedure, shortened: as §1
# [10] = molecular target: Gal(a1-4)Gal(b1-3)GlcNAc(b1-2)Man(a1-3)[Gal(a1-4)Gal(b1-3)GlcNAc(b1-2)Man(a1-6)]Man(b1-4)GlcNAc(b1-4)GlcNAc
# Procedure, shortened: as §1
# [11] = molecular target: Gal(a1-4)Gal(b1-4)Glc
# Procedure, shortened: as §1
# [12] = molecular target: Gal(a1-4)Gal(b1-4)GlcNAc
# Procedure, shortened: as §1
# [13] = molecular target: Gal(a1-4)Gal(b1-4)GlcNAc(b1-2)Man(a1-3)[Gal(a1-4)Gal(b1-4)GlcNAc(b1-2)Man(a1-6)]Man(b1-4)GlcNAc(b1-4)GlcNAc
# Procedure, shortened: as §1
# [14] = molecular target: Gal(a1-4)Gal(b1-4)GlcNAc(b1-3)Gal(b1-4)Glc
# Procedure, shortened: as §1
# [15] = molecular target: Gal(a1-4)GlcNAc
# Procedure, shortened: as §1
# [16] = molecular target: Gal(a1-6)Glc
# Procedure, shortened: as §1
# [17] = molecular target: Gal(b1-2)Gal
# Procedure, shortened: as §1
# [18] = molecular target: Gal(b1-3)Gal
# Procedure, shortened: as §1
# [19] = molecular target: Gal(b1-3)Gal(b1-4)GlcNAc
# Procedure, shortened: as §1
# [20] = molecular target: Gal(b1-3)GalNAc
# Procedure, shortened: as §1
# [21] = molecular target: Gal(b1-3)GalNAc(a1-3)[Fuc(a1-2)]Gal(b1-4)Glc
# Procedure, shortened: as §1
# [22] = molecular target: Gal(b1-3)GalNAc(a1-3)[Fuc(a1-2)]Gal(b1-4)GlcNAc
# Procedure, shortened: as §1
# [23] = molecular target: Gal(b1-3)GalNAc(b1-3)Gal
# Procedure, shortened: as §1
# [24] = molecular target: Gal(b1-3)GalNAc(b1-3)Gal(a1-4)Gal(b1-4)Glc
# Procedure, shortened: as §1
# [25] = molecular target: Gal(b1-3)GalNAc(b1-4)Gal(b1-4)Glc
# Procedure, shortened: as §1
# [26] = molecular target: Gal(b1-3)GalNAc(b1-4)[Neu5Ac(a2-3)]Gal(b1-4)Glc
# Procedure, shortened: as §1
# [27] = molecular target: Gal(b1-3)GlcNAc
# Procedure, shortened: as §1
# [28] = molecular target: Gal(b1-3)GlcNAc(a1-3)Gal(b1-4)GlcNAc
# Procedure, shortened: as §1
# [29] = molecular target: Gal(b1-3)GlcNAc(a1-6)Gal(b1-4)GlcNAc
# Procedure, shortened: as §1
# [30] = molecular target: Gal(b1-3)GlcNAc(b1-2)Man
# Procedure, shortened: as §1
# [31] = molecular target: Gal(b1-3)GlcNAc(b1-2)Man(a1-3)[Gal(b1-3)GlcNAc(b1-2)Man(a1-6)]Man(b1-4)GlcNAc(b1-4)GlcNAc
# Procedure, shortened: as §1
# [32] = molecular target: Gal(b1-3)GlcNAc(b1-2)Man(a1-3)[Gal(b1-3)GlcNAc(b1-2)Man(a1-6)]Man(b1-4)GlcNAc(b1-4)[Fuc(a1-6)]GlcNAc
# Procedure, shortened: as §1
# [33] = molecular target: Gal(b1-3)GlcNAc(b1-2)Man(a1-3)[GlcNAc(b1-4)][Gal(b1-3)GlcNAc(b1-2)Man(a1-6)]Man(b1-4)GlcNAc(b1-4)GlcNAc
# Procedure, shortened: as §1
# [34] = molecular target: Gal(b1-3)GlcNAc(b1-2)[Gal(b1-3)GlcNAc(b1-6)]Man(a1-6)[Gal(b1-3)GlcNAc(b1-2)Man(a1-3)]Man(b1-4)GlcNAc(b1-4)GlcNAc
# Procedure, shortened: as §1
# [35] = molecular target: Gal(b1-3)GlcNAc(b1-3)Gal(b1-3)GlcNAc
# Procedure, shortened: as §1
# [36] = molecular target: Gal(b1-3)GlcNAc(b1-3)Gal(b1-4)Glc
# Procedure, shortened: as §1
# [37] = molecular target: Gal(b1-3)GlcNAc(b1-3)Gal(b1-4)GlcNAc
# Procedure, shortened: as §1
# [38] = molecular target: Gal(b1-3)GlcNAc(b1-3)Gal(b1-4)GlcNAc(b1-2)Man(a1-3)[Gal(b1-3)GlcNAc(b1-3)Gal(b1-4)GlcNAc(b1-2)Man(a1-6)]Man(b1-4)GlcNAc(b1-4)GlcNAc
# Procedure, shortened: as §1
# [39] = molecular target: Gal(b1-3)GlcNAc(b1-3)Gal(b1-4)GlcNAc(b1-2)[Gal(b1-3)GlcNAc(b1-3)Gal(b1-4)GlcNAc(b1-6)]Man(a1-6)[Gal(b1-3)GlcNAc(b1-3)Gal(b1-4)GlcNAc(b1-2)Man(a1-3)]Man(b1-4)GlcNAc(b1-4)[Fuc(a1-6)]GlcNAc
# Procedure, shortened: as §1
# [40] = molecular target: Gal(b1-3)GlcNAc(b1-3)Gal(b1-4)GlcNAc(b1-3)Gal(b1-4)GlcNAc(b1-2)[Gal(b1-3)GlcNAc(b1-3)Gal(b1-4)GlcNAc(b1-3)Gal(b1-4)GlcNAc(b1-6)]Man(a1-6)[Gal(b1-3)GlcNAc(b1-3)Gal(b1-4)GlcNAc(b1-3)Gal(b1-4)GlcNAc(b1-2)Man(a1-3)]Man(b1-4)GlcNAc(b1-4)[Fuc(a1-6)]GlcNAc
# Procedure, shortened: as §1
# [41] = molecular target: Gal(b1-3)GlcNAc(b1-3)Gal(b1-4)GlcNAc(b1-6)[Gal(b1-3)GlcNAc(b1-3)]Gal(b1-4)Glc
# Procedure, shortened: as §1
# [42] = molecular target: Gal(b1-3)GlcNAc(b1-3)Gal(b1-4)[Fuc(a1-3)]GlcNAc
# Procedure, shortened: as §1
# [43] = molecular target: Gal(b1-3)GlcNAc(b1-3)Gal(b1-4)[Fuc(a1-3)]GlcNAc(b1-6)[Gal(b1-3)GlcNAc(b1-3)]Gal(b1-4)Glc
# Procedure, shortened: as §1
# [44] = molecular target: Gal(b1-3)GlcNAc(b1-3)GalNAc
# Procedure, shortened: as §1
# [45] = molecular target: Gal(b1-3)GlcNAc(b1-6)Gal(b1-4)GlcNAc
# Procedure, shortened: as §1
binder,measurement,setting,value
"cFel (Cyprinus carpio), P68512 (protein) LDCTVIDGNLKQIDAGSGSVVGVNNLNETFVLIDNVFTKISGSLKHFSVGPAGQLGVNTANNIFKYQSGGFVQLAGLLKQVDAGGDQIIAGVNMYDDIYCLNMDANNKWPSSNTPWVQINGKLKYYSCGPYSCWGVNSNDQIFIMKDVSSNVCSGSGSFINIPGLLSMIEVATDGSVFGVNSQGNLYQRTGVTRSKPDGTDWISMVACPNGHKHVSFDLGVLWLVCVDGSIRKCILTD",glycan array binding signal (z-score),[1],0.862
same,glycan array binding signal (z-score),[2],-0.902
same,glycan array binding signal (z-score),[3],-0.239
same,glycan array binding signal (z-score),[4],-1.1
same,glycan array binding signal (z-score),[5],-0.149
same,glycan array binding signal (z-score),[6],0.942
same,glycan array binding signal (z-score),[7],0.223
same,glycan array binding signal (z-score),[8],-0.513
same,glycan array binding signal (z-score),[9],-0.299
same,glycan array binding signal (z-score),[10],-0.502
same,glycan array binding signal (z-score),[11],-1.02
same,glycan array binding signal (z-score),[12],-0.32
same,glycan array binding signal (z-score),[13],-0.901
same,glycan array binding signal (z-score),[14],1.15
same,glycan array binding signal (z-score),[15],-0.218
same,glycan array binding signal (z-score),[16],-0.912
same,glycan array binding signal (z-score),[17],0.505
same,glycan array binding signal (z-score),[18],-0.479
same,glycan array binding signal (z-score),[19],-1.05
same,glycan array binding signal (z-score),[20],-0.974
same,glycan array binding signal (z-score),[21],-0.438
same,glycan array binding signal (z-score),[22],-0.789
same,glycan array binding signal (z-score),[23],1.31
same,glycan array binding signal (z-score),[24],-0.508
same,glycan array binding signal (z-score),[25],-0.944
same,glycan array binding signal (z-score),[26],-1.19
same,glycan array binding signal (z-score),[27],-0.131
same,glycan array binding signal (z-score),[28],1.29
same,glycan array binding signal (z-score),[29],0.772
same,glycan array binding signal (z-score),[30],-1.43
same,glycan array binding signal (z-score),[31],-1.01
same,glycan array binding signal (z-score),[32],-1.57
same,glycan array binding signal (z-score),[33],3.37
same,glycan array binding signal (z-score),[34],-0.869
same,glycan array binding signal (z-score),[35],0.162
same,glycan array binding signal (z-score),[36],-0.176
same,glycan array binding signal (z-score),[37],-0.661
same,glycan array binding signal (z-score),[38],-0.229
same,glycan array binding signal (z-score),[39],-0.039
same,glycan array binding signal (z-score),[40],0.075
same,glycan array binding signal (z-score),[41],0.814
same,glycan array binding signal (z-score),[42],0.016
same,glycan array binding signal (z-score),[43],0.284
same,glycan array binding signal (z-score),[44],1.19
same,glycan array binding signal (z-score),[45],-0.557

# In a second layout: entries from further up
binder | measurement | setting | value
cFel (Cyprinus carpio), P68512 (protein) LDCTVIDGNLKQIDAGSGSVVGVNNLNETFVLIDNVFTKISGSLKHFSVGPAGQLGVNTANNIFKYQSGGFVQLAGLLKQVDAGGDQIIAGVNMYDDIYCLNMDANNKWPSSNTPWVQINGKLKYYSCGPYSCWGVNSNDQIFIMKDVSSNVCSGSGSFINIPGLLSMIEVATDGSVFGVNSQGNLYQRTGVTRSKPDGTDWISMVACPNGHKHVSFDLGVLWLVCVDGSIRKCILTD | glycan array binding signal (z-score) | [6] | 0.942
same | glycan array binding signal (z-score) | [7] | 0.223
same | glycan array binding signal (z-score) | [8] | -0.513
